Values are relative to the signal before dosing, not to a vehicle control; the signal also falls without drug.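 Fibroblast labels name human fibroblasts: mostly primary ones from tissues such as uterus (C12385, HUF), lung (H6013), bone (Hs27A), adrenal (HADF) and skin (WS1), plus mammary HMF and breast cancer-associated Hs343T. The cancer cells are basal-like or mesenchymal-like triple-negative breast cancer lines. The paper calls a changed response a hit when it shifts by more than 3x the replicate standard deviation. The tissue of the other fibroblasts is not given here.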
System: MDAMB436
Experiment: relative JC-1 red fluorescence (viability) vs pre-drug, coculture with fibroblast (fraction); higher = more viable cancer cells
Method: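 JC-1 labelled TNBC cells cocultured 1:1 (1,500 cells each) with CellTrace Violet stained primary or stromal fibroblasts in 384-well plates in FluoroBrite medium, treated with one of 42 anticancer drugs at 0.1, 1, 10 or 100 uM. JC-1 red fluorescence (mitochondrial integrity in cancer cells only) was read by plate reader every 8 h for 72 h. Values are normalised to each well's pre-drug value. The stock of one drug was tenfold lower, so its dose labels may be too high.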

CC/C(=C(\c1ccccc1)c1ccc(OCCN(C)C)cc1)c1ccccc1 [Tamoxifen]
relative JC-1 red fluorescence
Conditions | 8 h | 16 h | 24 h | 32 h | 40 h | 48 h | 56 h | 64 h | 72 h
0.1 µM, coculture fibroblast: C12385 | 0.8223 | 0.664 | 0.6697 | 0.592 | 0.554 | 0.531 | 0.523 | 0.51 | 0.511
0.1 µM, coculture fibroblast: H6013 | 0.863 | 0.75 | 0.747 | 0.73 | 0.7096 | 0.7303 | 0.6899 | 0.6714 | 0.6306
0.1 µM, coculture fibroblast: H6019 | 0.719 | 0.624 | 0.607 | 0.534 | 0.5 | 0.478 | 0.441 | 0.41 | 0.38
0.1 µM, coculture fibroblast: H6076 | 0.764 | 0.686 | 0.661 | 0.615 | 0.594 | 0.5674 | 0.568 | 0.555 | 0.541
0.1 µM, coculture fibroblast: H6231 | 0.743 | 0.649 | 0.6349 | 0.564 | 0.5451 | 0.514 | 0.499 | 0.47 | 0.442
0.1 µM, coculture fibroblast: HADF | 0.8112 | 0.713 | 0.693 | 0.6617 | 0.634 | 0.639 | 0.592 | 0.581 | 0.54
0.1 µM, coculture fibroblast: HCFa | 0.873 | 0.809 | 0.793 | 0.785 | 0.769 | 0.793 | 0.735 | 0.717 | 0.657
0.1 µM, coculture fibroblast: HCPF | 0.801 | 0.747 | 0.752 | 0.709 | 0.708 | 0.675 | 0.662 | 0.638 | 0.622
0.1 µM, coculture fibroblast: HHSteC | 0.83 | 0.7518 | 0.719 | 0.688 | 0.666 | 0.682 | 0.618 | 0.592 | 0.528
0.1 µM, coculture fibroblast: HMF | 0.786 | 0.662 | 0.609 | 0.56 | 0.538 | 0.5 | 0.495 | 0.475 | 0.465
0.1 µM, coculture fibroblast: HPFa | 0.867 | 0.795 | 0.73 | 0.676 | 0.644 | 0.637 | 0.555 | 0.519 | 0.442
0.1 µM, coculture fibroblast: HUF | 0.857 | 0.748 | 0.745 | 0.661 | 0.615 | 0.589 | 0.571 | 0.564 | 0.565
0.1 µM, coculture fibroblast: Hs5 | 0.794 | 0.697 | 0.681 | 0.633 | 0.6188 | 0.5812 | 0.586 | 0.5526 | 0.542
0.1 µM, coculture fibroblast: Hs27A | 0.8082 | 0.741 | 0.712 | 0.697 | 0.667 | 0.713 | 0.619 | 0.598 | 0.525
0.1 µM, coculture fibroblast: Hs343T | 0.7848 | 0.683 | 0.63 | 0.577 | 0.542 | 0.5058 | 0.487 | 0.4704 | 0.4561
0.1 µM, coculture fibroblast: WS1 | 0.789 | 0.6631 | 0.633 | 0.549 | 0.5037 | 0.482 | 0.4569 | 0.428 | 0.4196
1 µM, coculture fibroblast: C12385 | 0.8232 | 0.7024 | 0.6982 | 0.622 | 0.5656 | 0.538 | 0.517 | 0.4985 | 0.485
1 µM, coculture fibroblast: H6013 | 0.92 | 0.852 | 0.858 | 0.862 | 0.852 | 0.871 | 0.839 | 0.82 | 0.761
1 µM, coculture fibroblast: H6019 | 0.7714 | 0.7092 | 0.705 | 0.633 | 0.592 | 0.5709 | 0.5301 | 0.5002 | 0.4671
1 µM, coculture fibroblast: H6076 | 0.791 | 0.755 | 0.764 | 0.716 | 0.684 | 0.651 | 0.658 | 0.642 | 0.629
1 µM, coculture fibroblast: H6231 | 0.814 | 0.741 | 0.76 | 0.6879 | 0.65237 | 0.6232 | 0.6072 | 0.582 | 0.54505
1 µM, coculture fibroblast: HADF | 0.848 | 0.74 | 0.712 | 0.675 | 0.652 | 0.658 | 0.594 | 0.575 | 0.526
1 µM, coculture fibroblast: HCFa | 0.838 | 0.744 | 0.729 | 0.68 | 0.655 | 0.653 | 0.576 | 0.556 | 0.493
1 µM, coculture fibroblast: HCPF | 0.828 | 0.739 | 0.7701 | 0.7149 | 0.68 | 0.638 | 0.616 | 0.588 | 0.547
1 µM, coculture fibroblast: HHSteC | 0.911 | 0.857 | 0.838 | 0.799 | 0.777 | 0.772 | 0.712 | 0.677 | 0.613
1 µM, coculture fibroblast: HMF | 0.812 | 0.7377 | 0.759 | 0.712 | 0.688 | 0.651 | 0.641 | 0.618 | 0.599
1 µM, coculture fibroblast: HPFa | 0.909 | 0.831 | 0.801 | 0.754 | 0.717 | 0.714 | 0.623 | 0.585 | 0.503
1 µM, coculture fibroblast: HUF | 0.857 | 0.768 | 0.739 | 0.655 | 0.595 | 0.567 | 0.535 | 0.51 | 0.501
1 µM, coculture fibroblast: Hs5 | 0.7968 | 0.7755 | 0.7675 | 0.706 | 0.686 | 0.633 | 0.627 | 0.594 | 0.58
1 µM, coculture fibroblast: Hs27A | 0.887 | 0.841 | 0.802 | 0.754 | 0.729 | 0.768 | 0.663 | 0.643 | 0.561
1 µM, coculture fibroblast: Hs343T | 0.825 | 0.753 | 0.746 | 0.7 | 0.667 | 0.628 | 0.609 | 0.593 | 0.569
1 µM, coculture fibroblast: WS1 | 0.8026 | 0.731 | 0.74 | 0.671 | 0.626 | 0.602 | 0.578 | 0.551 | 0.541
10 µM, coculture fibroblast: C12385 | 0.873 | 0.871 | 0.895 | 0.866 | 0.871 | 0.869 | 0.843 | 0.829 | 0.809
10 µM, coculture fibroblast: H6013 | 0.844 | 0.881 | 0.776 | 0.773 | 0.746 | 0.757 | 0.723 | 0.657 | 0.73
10 µM, coculture fibroblast: H6019 | 0.833 | 0.877 | 0.848 | 0.884 | 0.849 | 0.872 | 0.972 | 0.95 | 0.919
10 µM, coculture fibroblast: H6076 | 0.906 | 0.923 | 0.893 | 0.956 | 0.912 | 0.861 | 0.822 | 0.788 | 0.756
10 µM, coculture fibroblast: H6231 | 0.857 | 0.779 | 0.713 | 0.617 | 0.559 | 0.506 | 0.473 | 0.423 | 0.396
10 µM, coculture fibroblast: HADF | 0.918 | 0.819 | 0.873 | 0.857 | 0.821 | 0.845 | 0.824 | 0.805 | 0.828
10 µM, coculture fibroblast: HCFa | 0.91 | 0.847 | 0.911 | 0.852 | 0.8967 | 0.822 | 0.874 | 0.83 | 0.816
10 µM, coculture fibroblast: HCPF | 0.9031 | 0.865 | 0.849 | 0.798 | 0.738 | 0.696 | 0.654 | 0.607 | 0.588
10 µM, coculture fibroblast: HHSteC | 0.857 | 0.828 | 0.799 | 0.769 | 0.75 | 0.749 | 0.679 | 0.649 | 0.588
10 µM, coculture fibroblast: HMF | 0.856 | 0.818 | 0.84 | 0.83 | 0.823 | 0.789 | 0.768 | 0.719 | 0.702
10 µM, coculture fibroblast: HPFa | 0.865 | 0.811 | 0.768 | 0.734 | 0.715 | 0.703 | 0.643 | 0.608 | 0.54
10 µM, coculture fibroblast: HUF | 0.873 | 0.826 | 0.851 | 0.818 | 0.785 | 0.747 | 0.711 | 0.691 | 0.668
10 µM, coculture fibroblast: Hs5 | 0.876 | 0.823 | 0.793 | 0.74 | 0.733 | 0.69 | 0.691 | 0.663 | 0.656
10 µM, coculture fibroblast: Hs27A | 0.876 | 0.868 | 0.871 | 0.853 | 0.79 | 0.781 | 0.693 | 0.649 | 0.577
10 µM, coculture fibroblast: Hs343T | 0.7765 | 0.853 | 0.824 | 0.882 | 0.82 | 0.843 | 0.827 | 0.7292 | 0.775
10 µM, coculture fibroblast: WS1 | 0.84 | 0.88 | 0.875 | 0.842 | 0.793 | 0.796 | 0.75 | 0.8826 | 0.8703
